Results reported in patent JP2022142155A.
Results are given in words; binding and its absence hold for the method and conditions named. Some binding calls cover weakened binding; strength is not graded here.

Protein sequences, listed by entry. Tags and fused reporters are not part of them. Residues count along the entry.
UniProt P02769, residues 25-607: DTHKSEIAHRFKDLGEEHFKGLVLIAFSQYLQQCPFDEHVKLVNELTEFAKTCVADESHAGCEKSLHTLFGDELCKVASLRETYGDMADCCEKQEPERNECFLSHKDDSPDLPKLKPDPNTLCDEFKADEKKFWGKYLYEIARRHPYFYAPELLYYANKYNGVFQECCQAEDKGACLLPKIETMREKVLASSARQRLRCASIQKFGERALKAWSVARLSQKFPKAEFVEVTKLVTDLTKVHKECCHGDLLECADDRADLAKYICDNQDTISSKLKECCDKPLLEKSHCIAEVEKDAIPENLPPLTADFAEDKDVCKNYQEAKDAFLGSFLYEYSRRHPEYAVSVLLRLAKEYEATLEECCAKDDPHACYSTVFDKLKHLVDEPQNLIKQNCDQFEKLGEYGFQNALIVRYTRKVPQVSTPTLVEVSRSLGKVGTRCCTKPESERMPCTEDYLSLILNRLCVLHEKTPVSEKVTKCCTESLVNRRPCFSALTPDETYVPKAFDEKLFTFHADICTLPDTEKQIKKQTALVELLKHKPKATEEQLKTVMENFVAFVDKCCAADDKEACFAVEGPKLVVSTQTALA

B1: 配列番号:38により表されるアミノ酸配列を含む抗HSA抗体 (VHH, not shown: small tags and cut ends)
VHH: QVQLVESGGGLVQTGGSLRLSCAASGRIVTVAAMGWFRQAPGKEREFVASISWSGRSRSYADSVKGRFTISRDNAKNTAYLQMSSLKPEDTGVYYCALGGNSYSSDYARYDYWGQGTQVTVSS
B2: 配列番号:40により表されるアミノ酸配列を含む抗HSA抗体 (VHH, not shown: small tags and cut ends)
VHH: QVQLVESGGGLVQAGKSLRLSCTASGSIPSIGVTGWHRQAPGKQRELVATISQGGHINYFESVKGRFTISRDNAKNTVYLQMNSLKPEDTGVYYCNAFWLPLRLNDYWGQGTQVTVSS
B3: 配列番号:37により表されるアミノ酸配列を含む抗HSA抗体 (VHH, not shown: small tags and cut ends)
VHH: EVQLVESGGGLVHPGGSLRLSCVASGSDVSSDTMGWFRRAPGKQRELVAAIAWGGSTHYAESVKGRFTISRDNAKNTVYLQLSNLKPEDTAVYLCNTRNYWGQGTQVTVSS

Molecular target: ウシ血清アルブミン (bovine) (UniProt P02769)
Assay: ELISA, albumin coated, anti-His-HRP detection, A450

Binder	binding
B1	binds
B2	binds
B3	binds
